Among the data in PMC7312952 are binding values, retold here.

Results are given in words; binding and its absence hold for the method and conditions named. Binding seen in cells or lysates may run through a third protein. Binding calls can cover weak binding; strength is not graded here. Sequences can lack the tags named with a protein.

The test addresses OsPYL/RCAR7-GFP (rice (Oryza sativa cv. Dongjin)). The test can be described thus: co-IP; rice protoplasts co-transformed; extracts on GFP-trap beads, 4 °C, 2 h; 150 mM NaCl, 50 mM Tris-HCl pH 7.5, 1 mM EDTA, 2 mM EGTA, 2 mM MgCl2, 0.5% NP40, 0.5% Triton X-100; OsPYL/RCAR7-GFP precipitated, OsPP2C51 detected with anti-HA; without and with ABA.

B1: OsPP2C51 with 3xHA tag (enzyme, UniProt Q65XK7 1-381)
chain: MRETGATDEGHACEVVVAGGDGKAAAARRRRRLELRRLGLAAEDDAAAKRIRSVKDGSSSDDSSTEVVPRSWPACVSHGSVSVIGRRREMEDAVAIERTFMASTGDGAGAIRGGGEGEEDFFAVYDGHGGSRVAEACRKRMHVVLAEEVSLRRLRGQSASGGDVRWKEAMLASFARMDGEVVGSVAAAAPRVDGTEPSGFRTVGSTAVVAVVGRRRIVVANCGDSRAVLSRGGVALPLSTDHKPDRPDELERVEAAGGRVINWNGYRVLGVLATSRSIGDYYLKPFVSAEPEVRVVERTDKDEFLILASDGLWDVVSNEVACKIARNCLNGRAASMFPESVSGSSAADAAALLAELAVSRGSRDNISVVVVELRRLKSRAA
With B1, the binding entry is on record as “binds”.
